From patent publication US6943183B2 (Pfizer Inc, priority 2000, dated 2005)
The structures given here were assigned with low confidence; some may be wrong.

The chains behind the UniProt entries cited, without tags or fusion partners.
UniProt Q02293, whole entry: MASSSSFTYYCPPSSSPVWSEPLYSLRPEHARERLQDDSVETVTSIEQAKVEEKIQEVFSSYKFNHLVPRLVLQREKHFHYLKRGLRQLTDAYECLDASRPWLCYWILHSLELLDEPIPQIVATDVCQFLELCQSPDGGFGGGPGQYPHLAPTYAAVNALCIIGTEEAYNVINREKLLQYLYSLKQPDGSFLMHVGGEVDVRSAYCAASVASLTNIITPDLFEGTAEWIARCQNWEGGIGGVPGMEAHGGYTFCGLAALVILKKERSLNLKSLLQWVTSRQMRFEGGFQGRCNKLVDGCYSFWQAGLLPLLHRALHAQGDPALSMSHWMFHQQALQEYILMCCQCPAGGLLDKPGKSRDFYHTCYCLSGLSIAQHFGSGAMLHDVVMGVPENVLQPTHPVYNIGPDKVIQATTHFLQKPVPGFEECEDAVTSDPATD

Target: SF9 affinity purified rat FPT (Rattus norvegicus, UniProt Q02293+Q04631)
Assay: PFT (FPT) inhibitory activity assay, radiolabeled farnesyl pyrophosphate and biotinyl peptide, streptavidin beads
Details: read-out: FTase IC50 nM; HEPES buffer pH 7.4, 30° C., 30 minutes

IC50: 1 nM
Structure (SMILES): CCc1cccc(OCc2c(O[C@H](Cn3ccnc3)c3ccccc3)ccc3c2CCCC3=O)c1
